Sequences of proteins named here, by UniProt entry; tags and fusion partners are left off. A change or cut given only in a name is not applied to a line headed by its entry.
UniProt Q9CZP7: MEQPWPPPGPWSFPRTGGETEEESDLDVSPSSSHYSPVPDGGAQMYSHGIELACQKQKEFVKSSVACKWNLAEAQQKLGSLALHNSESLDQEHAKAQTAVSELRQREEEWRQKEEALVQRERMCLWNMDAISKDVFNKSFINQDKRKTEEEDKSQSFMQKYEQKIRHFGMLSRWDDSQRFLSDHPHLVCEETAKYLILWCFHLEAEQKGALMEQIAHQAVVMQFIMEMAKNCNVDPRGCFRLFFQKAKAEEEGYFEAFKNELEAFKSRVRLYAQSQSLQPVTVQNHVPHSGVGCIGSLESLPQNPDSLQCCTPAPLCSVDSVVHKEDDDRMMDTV
UniProt Q9CY28: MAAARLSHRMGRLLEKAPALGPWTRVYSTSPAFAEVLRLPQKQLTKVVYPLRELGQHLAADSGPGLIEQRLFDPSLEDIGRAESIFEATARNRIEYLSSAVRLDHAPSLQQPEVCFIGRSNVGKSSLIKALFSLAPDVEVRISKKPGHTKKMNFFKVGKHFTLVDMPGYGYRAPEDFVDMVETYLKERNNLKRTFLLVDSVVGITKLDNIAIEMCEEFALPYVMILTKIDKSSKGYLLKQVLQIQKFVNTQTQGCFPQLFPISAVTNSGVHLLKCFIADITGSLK
UniProt Q9CR83: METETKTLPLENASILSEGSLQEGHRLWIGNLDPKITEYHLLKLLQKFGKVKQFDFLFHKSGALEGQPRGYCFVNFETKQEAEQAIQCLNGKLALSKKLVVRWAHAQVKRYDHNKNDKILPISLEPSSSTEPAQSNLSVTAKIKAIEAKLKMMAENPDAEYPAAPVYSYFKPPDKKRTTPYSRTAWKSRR
UniProt Q9CZV5: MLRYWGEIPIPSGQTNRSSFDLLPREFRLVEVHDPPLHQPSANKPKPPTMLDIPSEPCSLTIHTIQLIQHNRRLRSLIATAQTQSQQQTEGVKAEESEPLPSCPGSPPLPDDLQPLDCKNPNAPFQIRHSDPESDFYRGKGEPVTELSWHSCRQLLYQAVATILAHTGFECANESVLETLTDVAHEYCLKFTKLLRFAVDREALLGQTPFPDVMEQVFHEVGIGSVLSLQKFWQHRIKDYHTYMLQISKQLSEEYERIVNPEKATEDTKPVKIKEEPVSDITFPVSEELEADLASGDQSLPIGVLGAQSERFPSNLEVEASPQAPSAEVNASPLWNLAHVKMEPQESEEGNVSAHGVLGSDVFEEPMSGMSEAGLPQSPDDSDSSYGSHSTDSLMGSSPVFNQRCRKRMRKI

Some of the results follow. Most entries show no effect beyond the scatter of the controls.
The targets below were run with CN[C@@H]1C[C@H]2O[C@@](C)([C@@H]1OC)n1c3ccccc3c3c4c(c5c6ccccc6n2c5c31)C(=O)NC4 [staurosporine] (assay: log2 fold change of tryptic peptide abundance, ligand vs vehicle (limited proteolysis) (log2 ratio); higher = more trypsin-susceptible (destabilized)). Details: ligand concentration: 20 uM; sample: mouse liver crude lysate; replicate design: treated separately.
For “UniProt Q9CZP7 (peptide sequence: QREEEWR, peptide start residue: 105)”, the log2 fold change was -0.238. “UniProt Q9CY28 (peptide sequence: CFIADITGSLK, peptide start residue: 275)” gave a log2 fold change of 0.161. “UniProt Q9CR83 (peptide sequence: ITEYHLLK, peptide start residue: 36)” was tested, and the log2 fold change was 0.182. “UniProt Q9CZV5 (peptide sequence: HSDPESDFYR, peptide start residue: 129)” showed a log2 fold change of -0.301.

From the supplement of paper PMC12819154, “High-throughput peptide-centric local stability assay extends protein–ligand identification to membrane proteins, tissues and bacteria” (Nature Structural & Molecular Biology, 2025)
